Results: publication PMC8705706, “Benzimidazole Derivatives as New and Selective Inhibitors of Arginase from Leishmania mexicana with Biological Activity against Promastigotes and Amastigotes” (International Journal of Molecular Sciences, 2021)

How the values were obtained:
[1] = test system: Promastigotes of L. mexicana (MNYC/BZ/62/M379); experiment: Biological activity against promastigotes, resazurin; assay type: cell-based, Leishmania mexicana; conditions: SI = CC50/IC50, J774.2 versus promastigotes
Method: Promastigotes of L. mexicana (MNYC/BZ/62/M379 reference strain) were grown in Schneider’s medium supplemented with fetal bovine serum 10% (v/v), ampicillin (100 U/mL)/streptomycin (100 µg/mL). Parasites were collected at log phase to assess the compounds and 5 × 10^5 promastigotes were seeded in a 96-wells plate. Compounds were previously dissolved in dimethyl sulfoxide (DMSO) up to a concentration of 1 mg/mL. Thereafter, serial dilutions were made with culture medium from 100 µg/mL to 0.8 µg/mL and then they were added to the wells by triplicates. Parasites non treated and treated with Glucantime, Amphotericin B and Miltefosine were included as […]. Parasites were incubated at 26 °C during 48 h and resazurin 2.5 mM was added at the end into each well. Afterwards, fluorescence intensity was measured with excitation/emission 535/590 nm in a spectrofluorometer (Infinite 200, Tecan Group Ltd., Mannedorf, Switzerland). Finally, half maximal inhibitory concentration (IC50) was determined through a Probit analysis. The assays were made by triplicate in 3 independent experiments.

[2] = test system: amastigote of L. mexicana; experiment: Biological activity against intracellular amastigotes in J774.2 macrophages, resazurin; assay type: cell-based, Leishmania mexicana; conditions: SI = CC50/IC50, J774.2 versus amastigotes
Method: Biological activity of the benzimidazole derivatives was also evaluated against the amastigote of L. mexicana. For this, 5 × 10^4 murine macrophages J774.2 (ATCC® TIB-67) per well were grown in a plate of 96 wells with RPMI medium at […], 5% CO2 during 24 h. The cells were infected with promastigotes in log phase in a 10:1 proportion (parasite: macrophage) and they were incubated at 37 °C, 5% CO2 during 24–48 h. A wash with RPMI medium to remove the not-infected promastigotes was made. Compounds were added in a serial dilution from 100 µg to 0.8 µg/mL in triplicate and were incubated at 37 °C, 5% CO2 for 48 h. Glucantime, Amphotericin B and Miltefosine were used as reference drugs. Then, the cells were lysed with a non-complemented Schneider’s medium lysis solution with SDS 0.01%, after incubating for 20 min the lysis solution was removed. Afterwards, Schneider medium was added incubating at 26 °C during four days at room temperature to differentiate intracellular amastigotes from free amastigotes. Thereafter, 20 µL of resazurin 2.5 mM was added to each well and incubated during 3 h. Fluorescence intensity and IC50 were measured as described for promastigotes. The assays were made by triplicate in 3 independent experiments.

Structure (SMILES): CSc1nc2cc(C(N)=O)c(Cl)cc2[nH]1 [Compound 2, 6-Chloro-2-(methylthio)-1H-benzimidazole-5-carboxamide]
- SI Promastigotes [1]: 3.1
- SI Amastigotes [2]: 4.1

Structure (SMILES): COC(=O)Nc1nc2cc(Cl)ccc2n1C [Compound 1, Methyl (5-chloro-1-methyl-1H-benzimidazol-2-yl)carbamate]
- SI Promastigotes [1]: 6.5
- SI Amastigotes [2]: 13
